Experimental data: PubChem BioAssay AID493246 (Drosophila RNAi Screening Center, 2011)
In all, the deposit lists about 21,000 reagents; shown is a random part of those that have a named target and a result. In the full data, 429 (2%) are marked active. 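Values are raw and not normalised between plates; calls rest on per-plate z-scores that were not deposited.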 Names joined by + are all predicted targets of the reagent. The record does not give: the amount of reagent, the time to read-out.

Aim: 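Genome-wide search for dsRNAs that reduce cell number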 (primary screen)
System: Drosophila Kc and S2R+ cells
Reagents: long dsRNA against Drosophila genes
Detection: 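Cell number per well after knock-down, printed as raw plate values; calls were based on per-plate z-scores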
Direction: Kc cell number and S2R+ cell number: higher = more cells remaining
Hit rule: 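Counted as a hit if cell number falls by a z-score of at least 3 within its plate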

The first 8 entries, ahead of the listing:
| target | DRSC id | Kc cell number, rep 1 | Kc cell number, rep 2 | S2R+ cell number, rep 1 | S2R+ cell number, rep 2 | activity call |
| --- | --- | --- | --- | --- | --- | --- |
| Ccp84Ac | DRSC12588 | 1.36e6 | 1.55e6 | 1.23e6 | 1.28e6 | inactive |
| CG13001 | DRSC19520 | 1.34e6 | 1.43e6 | 9.66e5 | 1.13e6 | inactive |
| CG14130 | DRSC10134 | 1.58e6 | 1.76e6 | 1.23e6 | 1.32e6 | inactive |
| CG34435 | DRSC18086 | 1.54e6 | 1.51e6 | 1.01e6 | 1.12e6 | inactive |
| kst | DRSC08719 | 1.33e6 | 1.48e6 | 1.11e6 | 1.06e6 | inactive |
| nopo | DRSC06918 | 1.40e6 | 1.38e6 | 1.17e6 | 1.26e6 | inactive |
| Cdc45 | DRSC17747 | 5.73e5 | – | 8.37e5 | – | inactive |
| Cdc45 | DRSC18164 | 1.57e6 | 1.71e6 | 1.00e6 | 1.16e6 | inactive |

Results, from the first entry:
| target | DRSC id | Kc cell number, rep 1 | Kc cell number, rep 2 | S2R+ cell number, rep 1 | S2R+ cell number, rep 2 | activity call |
| --- | --- | --- | --- | --- | --- | --- |
| Ccp84Ac | DRSC12588 | 1.36e6 | 1.55e6 | 1.23e6 | 1.28e6 | inactive |
| CG13001 | DRSC19520 | 1.34e6 | 1.43e6 | 9.66e5 | 1.13e6 | inactive |
| CG14130 | DRSC10134 | 1.58e6 | 1.76e6 | 1.23e6 | 1.32e6 | inactive |
| CG34435 | DRSC18086 | 1.54e6 | 1.51e6 | 1.01e6 | 1.12e6 | inactive |
| kst | DRSC08719 | 1.33e6 | 1.48e6 | 1.11e6 | 1.06e6 | inactive |
| nopo | DRSC06918 | 1.40e6 | 1.38e6 | 1.17e6 | 1.26e6 | inactive |
| Cdc45 | DRSC17747 | 5.73e5 | – | 8.37e5 | – | inactive |
| Cdc45 | DRSC18164 | 1.57e6 | 1.71e6 | 1.00e6 | 1.16e6 | inactive |
| Dh44 | DRSC12747 | 1.52e6 | 1.77e6 | 1.06e6 | 1.30e6 | inactive |
| Dh44 | DRSC16409 | 1.40e6 | 1.42e6 | 1.22e6 | 1.33e6 | inactive |
| Agpat2 | DRSC03532 | 1.20e6 | 1.27e6 | 5.56e5 | 6.38e5 | inactive |
| CG14300 | DRSC14779 | 1.18e6 | 1.29e6 | 1.02e6 | 1.16e6 | inactive |
| CG7810 | DRSC03072 | 1.33e6 | 1.38e6 | 7.52e5 | 8.62e5 | inactive |
| Taf5 | DRSC07562 | 1.63e6 | 1.59e6 | 1.08e6 | 1.10e6 | inactive |
| mRpL39 | DRSC10255 | 1.17e6 | 1.31e6 | 1.09e6 | 1.26e6 | inactive |
| caps | DRSC11333 | 1.22e6 | 1.34e6 | 1.25e6 | 1.31e6 | inactive |
| CG3309 | DRSC18301 | 1.61e6 | 1.56e6 | 9.87e5 | 1.17e6 | inactive |
| CG14569 | DRSC11730 | 1.45e6 | 1.57e6 | 1.39e6 | 1.50e6 | inactive |
| Rint1 | DRSC11010 | 1.49e6 | 1.47e6 | 1.12e6 | 1.14e6 | inactive |
| Spn42De | DRSC05011 | 1.64e6 | 1.72e6 | 1.22e6 | 1.39e6 | inactive |
| Dpit47 | DRSC04985 | 1.63e6 | 1.64e6 | 1.18e6 | 1.40e6 | inactive |
| Atxn7 | DRSC00726 | 1.28e6 | 1.36e6 | 1.06e6 | 9.87e5 | inactive |
| CG13437 | DRSC06397 | 1.32e6 | 1.40e6 | 1.04e6 | 1.23e6 | inactive |
| EMC8-9 | DRSC04380 | 1.24e6 | 1.26e6 | 1.12e6 | 1.17e6 | inactive |
| RpS27A | DRSC03421 | 1.42e6 | 1.48e6 | 9.21e5 | 1.06e6 | inactive |
| CG3609 | DRSC00620 | 1.45e6 | 1.50e6 | 9.89e5 | 1.15e6 | inactive |
| Cad96Cb | DRSC14243 | 1.49e6 | 1.56e6 | 9.53e5 | 1.01e6 | inactive |
| Cad96Cb | DRSC14665 | 1.56e6 | 1.69e6 | 1.03e6 | 1.15e6 | inactive |
| CG3699 | DRSC18171 | 1.71e6 | 1.71e6 | 1.08e6 | 1.22e6 | inactive |
| CG3699 | DRSC18642 | 1.71e6 | 1.81e6 | 1.09e6 | 1.23e6 | inactive |
| CG32249 | DRSC08101 | 1.38e6 | 1.29e6 | 1.00e6 | 1.12e6 | inactive |
| CG32249 | DRSC08177 | 1.53e6 | 1.44e6 | 1.06e6 | 1.21e6 | inactive |
| asRNA:CR42743 + CG34162 | DRSC01190 | 1.44e6 | 1.49e6 | 9.55e5 | 1.06e6 | inactive |
| rush | DRSC18568 | 5.35e5 | – | 9.20e5 | – | inactive |
| qkr58E-1 | DRSC04709 | 1.35e6 | 1.37e6 | 9.18e5 | 1.03e6 | inactive |
| CG4676 | DRSC06879 | 1.72e6 | 1.79e6 | 1.18e6 | 1.31e6 | inactive |
| CG10764 | DRSC06000 | 1.43e6 | 1.47e6 | 1.08e6 | 1.18e6 | inactive |
| CG10616 | DRSC09750 | 1.40e6 | 1.45e6 | 1.32e6 | 1.26e6 | inactive |
| SmD2 | DRSC12536 | 1.35e6 | 1.47e6 | 7.70e5 | 8.92e5 | inactive |
| Nprl3 | DRSC11044 | 1.53e6 | 1.62e6 | 1.23e6 | 1.23e6 | inactive |
| CG14720 | DRSC14942 | 1.37e6 | 1.41e6 | 1.35e6 | 1.41e6 | inactive |
| CG5608 | DRSC15841 | 1.74e6 | 1.82e6 | 1.28e6 | 1.36e6 | inactive |
| mew | DRSC18971 | 1.57e6 | 1.89e6 | 1.14e6 | 1.24e6 | inactive |
| mew | DRSC20352 | 1.51e6 | 1.46e6 | 1.05e6 | 1.11e6 | inactive |
| CG17855 | DRSC02638 | 1.55e6 | 1.67e6 | 1.32e6 | 1.47e6 | inactive |
| CG45067 | DRSC08414 | 1.49e6 | 1.44e6 | 1.04e6 | 1.37e6 | inactive |
| CG33259 | DRSC10854 | 1.48e6 | 1.66e6 | 1.32e6 | 1.38e6 | inactive |
| LBR | DRSC04298 | 1.18e6 | 1.18e6 | 1.06e6 | 9.54e5 | inactive |
| CG31221 | DRSC14335 | 1.35e6 | 1.47e6 | 1.05e6 | 1.17e6 | inactive |
| CG31221 | DRSC16217 | 1.32e6 | 1.34e6 | 1.05e6 | 1.13e6 | inactive |
| CG12479 | DRSC19459 | 1.55e6 | 1.58e6 | 1.05e6 | 1.18e6 | inactive |
| CG9581 | DRSC20695 | 1.49e6 | 1.57e6 | 1.07e6 | 1.19e6 | inactive |
| otu | DRSC18811 | 1.53e6 | 1.53e6 | 1.05e6 | 1.18e6 | inactive |
| NAAT1 | DRSC18300 | 1.48e6 | 1.49e6 | 9.73e5 | 1.13e6 | inactive |
| Prosbeta5R2 | DRSC01617 | 1.46e6 | 1.54e6 | 9.21e5 | 1.22e6 | inactive |
| al | DRSC00799 | 1.61e6 | 1.70e6 | 1.13e6 | 1.28e6 | inactive |
| Ir94g | DRSC15231 | 1.50e6 | 1.55e6 | 1.08e6 | 1.20e6 | inactive |
| CG17715 | DRSC11950 | 1.54e6 | 1.70e6 | 1.45e6 | 1.51e6 | inactive |
| Exn | DRSC09673 | 1.58e6 | 1.81e6 | 8.38e5 | 1.02e6 | inactive |
| Exn | DRSC10077 | 1.45e6 | 1.49e6 | 1.29e6 | 1.45e6 | inactive |
| CG11333 | DRSC14301 | 1.64e6 | 1.61e6 | 9.71e5 | 1.13e6 | inactive |
| Gp210 | DRSC04861 | 1.54e6 | 1.57e6 | 1.27e6 | 1.38e6 | inactive |
| Gp210 | DRSC04900 | 1.36e6 | 1.45e6 | 1.14e6 | 1.18e6 | inactive |
| CG10809 | DRSC09802 | 1.59e6 | 1.51e6 | 1.45e6 | 1.50e6 | inactive |
| Polr2C | DRSC03415 | 1.45e6 | 1.48e6 | 1.10e6 | 1.22e6 | inactive |
| CG5390 | DRSC02855 | 1.50e6 | 1.60e6 | 1.20e6 | 1.33e6 | inactive |
| CG3473 | DRSC01915 | 1.66e6 | 1.68e6 | 1.34e6 | 1.53e6 | inactive |
| Socs44A | DRSC06828 | 1.57e6 | 1.62e6 | 1.22e6 | 1.37e6 | inactive |
| CG18011 | DRSC06697 | 1.51e6 | 1.53e6 | 1.15e6 | 1.24e6 | inactive |
| CG18011 | DRSC06706 | 1.84e6 | 1.84e6 | 1.40e6 | 1.58e6 | inactive |
| Elba3 | DRSC00469 | 1.20e6 | 1.37e6 | 7.27e5 | 5.47e5 | inactive |
| mad2 | DRSC10274 | 1.47e6 | 1.23e6 | 1.03e6 | 1.05e6 | inactive |
| CG5290 | DRSC10501 | 1.78e6 | 1.79e6 | 1.50e6 | 1.56e6 | inactive |
| hydra | DRSC20497 | 1.45e6 | 1.45e6 | 1.10e6 | 1.14e6 | inactive |
| kl-5 (retired record) | DRSC20707 | 1.59e6 | 1.58e6 | 1.12e6 | 1.20e6 | inactive |
| kl-5 (retired record) | DRSC20736 | 1.26e6 | 1.47e6 | 1.17e6 | 1.07e6 | inactive |
| kl-5 (retired record) | DRSC20773 | 1.19e6 | 1.47e6 | 1.12e6 | 1.18e6 | inactive |
| kl-5 (retired record) | DRSC21161 | 1.60e6 | 1.62e6 | 1.06e6 | 1.19e6 | inactive |
